Data source: PubChem BioAssay AID1259425 (University of Nebraska Medical Center, 2018)

Purpose: 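Find knockdowns that reproduce the gene expression pattern seen when KSR1 is lost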 (primary screen)
System: HCT116 human colon cancer cells
Knock-down reagent: siRNA pool against human genes, 50 nM siRNA
Read-out: 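After 50 nM siRNA pool, branched-DNA assay measures six marker transcripts per well, minus blank, normalised to the geometric mean of two housekeeping transcripts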
Direction: BNIP3L mRNA: higher = more BNIP3L transcript after knockdown; NDRG1 mRNA: higher = more NDRG1 transcript after knockdown; BNIP3 mRNA: higher = more BNIP3 transcript after knockdown; ALDOC mRNA: higher = more ALDOC transcript after knockdown; ACSL5 mRNA: higher = more ACSL5 transcript after knockdown
Here is an unselected part of about 14,000 reagents. Not stated in the record: the time to read-out.

| gene | BNIP3L mRNA, set 1 | NDRG1 mRNA, set 1 | BNIP3 mRNA, set 1 | ALDOC mRNA, set 1 | ACSL5 mRNA, set 1 |
| --- | --- | --- | --- | --- | --- |
| MTCH1 | 0.181 | 0.0889 | 0.286 | 0.0105 | 0.232 |
| SSX3 (SSX family member 3) | 0.371 | 0.379 | 0.395 | 0.036 | 0.169 |
| ARHGEF10L (Rho guanine nucleotide exchange factor 10 like) | 0.104 | 0.324 | 0.298 | 0.0487 | 0.0599 |
| DCAF6 (DDB1 and CUL4 associated factor 6) | 0.324 | 0.42 | 0.524 | 0.0553 | 0.138 |
| RNF11 (ring finger protein 11) | 0.0904 | 0.159 | 0.51 | 0.0183 | 0.149 |
| TBCA (tubulin folding cofactor A) | 0.0874 | 0.0806 | 0.242 | 0.0397 | 0.0627 |
| POPDC1 (popeye domain cAMP effector 1) | 0.0866 | 0.127 | 0.348 | 0.0139 | 0.103 |
| ELL2 (elongation factor for RNA polymerase II 2) | 0.151 | 0.125 | 0.334 | 0.0402 | 0.13 |
| ENPP4 (ectonucleotide pyrophosphatase/phosphodiesterase 4) | 0.106 | 0.355 | 0.309 | 0.0124 | 0.275 |
| NAA20 (N-alpha-acetyltransferase 20, NatB catalytic subunit) | 0.0611 | 0.16 | 0.407 | 0.0121 | 0.163 |

Next part, starting with the last 2 of the part before.
| gene | BNIP3L mRNA, set 1 | NDRG1 mRNA, set 1 | BNIP3 mRNA, set 1 | ALDOC mRNA, set 1 | ACSL5 mRNA, set 1 |
| --- | --- | --- | --- | --- | --- |
| ENPP4 (ectonucleotide pyrophosphatase/phosphodiesterase 4) | 0.106 | 0.355 | 0.309 | 0.0124 | 0.275 |
| NAA20 (N-alpha-acetyltransferase 20, NatB catalytic subunit) | 0.0611 | 0.16 | 0.407 | 0.0121 | 0.163 |
| STXBP3 (syntaxin binding protein 3) | 0.149 | 0.112 | 0.281 | 0.0334 | 0.135 |
| TBR1 (T-box brain transcription factor 1) | 0.107 | 0.234 | 0.191 | 0.0157 | 0.073 |
| ZNF3 (zinc finger protein 3) | 0.0907 | 0.125 | 0.33 | 0.0428 | 0.117 |
| FUT7 (fucosyltransferase 7) | 0.157 | 0.377 | 0.384 | 0.0398 | 0.184 |
| GABRP (gamma-aminobutyric acid type A receptor subunit pi) | 0.0621 | 0.378 | 0.268 | 0.0219 | 0.198 |
| TSPY1 (testis specific protein Y-linked 1) | 0.0558 | 0.134 | 0.315 | 0.0323 | 0.122 |
| GTF3C4 (general transcription factor IIIC subunit 4) | 0.0419 | 0.175 | 0.215 | 0.0125 | 0.149 |
| CRBN (cereblon) | 0.153 | 0.236 | 0.283 | 0.0181 | 0.197 |
| OR2B6 (olfactory receptor family 2 subfamily B member 6) | 0.0991 | 0.175 | 0.47 | 0.0647 | 0.278 |
| RAB1A (RAB1A, member RAS oncogene family) | 0.0571 | 0.141 | 0.258 | 0.0205 | 0.205 |
